# From the supplement of paper PMC8256030
# Values joined by “and” are separate entries in the source; they are usually repeats but may differ in a detail not shown here. Equal values may be shown once. Some of the results follow. Repeats in this data set agree poorly, so a single value says little.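 HEK293T cells were given each compound shortly before transfection with a reporter in which red mCherry is followed by the SARS-CoV-2 frameshift element and then GFP in the −1 frame, so GFP appears only after frameshifting.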
# Tested on: HEK293T
# Test: percent viability (nuclei count) relative to control; higher = more viable cells
# Settings: 10 µM; 24 h
row,Compound,percent viability
1,C=C1/C(=C\C=C2/CCC[C@]3(C)[C@@H]([C@H](C)/C=C/C=C/C(O)(CC)CC)CC[C@@H]23)C[C@@H](O)C[C@@H]1O [seocalcitol],150%
2,COc1cnc(NS(=O)(=O)c2ccc(N)cc2)nc1 [sulfametoxydiazine],288%
3,CC(=O)OCC(=O)[C@@]1(O)CC[C@H]2[C@@H]3CCC4=CC(=O)CC[C@]4(C)[C@@]3(F)[C@@H](O)C[C@@]21C,126%
4,CN1CCN(C2=Nc3cc(Cl)ccc3Nc3ccccc32)CC1 [Clozapine],251%
5,C[C@]12CCC(=O)C=C1CC[C@H]1[C@@H]3CC[C@](O)(C(=O)CO)[C@@]3(C)C[C@H](O)[C@@]12F [fludrocortisone],249%
6,OCc1ccccc1 [benzyl alcohol],288%
7,O=C(Nc1ccc(C(=O)O)c(O)c1)c1ccccc1,254%
8,CN1CCC[C@H]1c1cccnc1 [Nicotine],43.3%
9,CC(C)=CCNc1ncnc2c1ncn2[C@@H]1O[C@H](CO)[C@@H](O)[C@H]1O [riboprine],149%
10,CC(C)[N+](C)(CCOC(=O)C1c2ccccc2Oc2ccccc21)C(C)C [propantheline bromide],190%
11,COc1cc(N)c(Cl)cc1C(=O)NC1CCN(Cc2ccccc2)CC1 [clebopride],158%
12,CC[C@H](C)C[C@H](C)CCCCCCCCC(=O)N[C@H]1C[C@@H](O)[C@@H](NCCN)NC(=O)[C@@H]2[C@@H](O)CCN2C(=O)[C@H]([C@H](O)CCN)NC(=O)[C@H]([C@H](O)[C@@H](O)c2ccc(O)cc2)NC(=O)[C@@H]2C[C@@H](O)CN2C(=O)[C@H]([C@@H](C)O)NC1=O [Cancidas],189%
13,CN[C@@H]1[C@H](O)[C@H](NC)[C@H]2O[C@@]3(O)C(=O)C[C@@H](C)O[C@H]3O[C@@H]2[C@H]1O [Spectinomycin·2HCl],139%
14,CC1(C)C2CCC1(CS(=O)(=O)O)C(=O)C2=Cc1ccc(C=C2C(=O)C3(CS(=O)(=O)O)CCC2C3(C)C)cc1,146%
15,O=C(NCCNCC(O)COc1ccc(O)cc1)N1CCOCC1 (centres undefined) [Xamoterol hemifumarate],236%
16,CC(=O)Nc1c(I)c(NC(C)=O)c(I)c(C(=O)O)c1I,254%
17,Cc1cccc(CN2CCN(C(c3ccccc3)c3ccc(Cl)cc3)CC2)c1 (centres undefined) [meclozine],117%
18,CN/C(=N\c1ccc(C2=NNC(=O)CC2C)cc1)NC#N (centres undefined) [siguazodan],105%
19,Cc1scc2c1N(C(=O)CN1CCN(C)CC1)c1ccccc1NC2=O,231%
20,CC(=O)N(CC(O)CO)c1c(I)c(C(=O)NCC(O)CO)c(I)c(C(=O)NCC(O)CO)c1I (centres undefined),180%

# Entries from the list above containing nitrogen in an aromatic ring:
row,Compound,percent viability
2,COc1cnc(NS(=O)(=O)c2ccc(N)cc2)nc1 [sulfametoxydiazine],288%
8,CN1CCC[C@H]1c1cccnc1 [Nicotine],43.3%
9,CC(C)=CCNc1ncnc2c1ncn2[C@@H]1O[C@H](CO)[C@@H](O)[C@H]1O [riboprine],149%

# Further compounds

row,Compound,percent viability
1,CCCC1O[C@@H]2C[C@H]3[C@@H]4CCC5=CC(=O)C=C[C@]5(C)[C@H]4[C@@H](O)C[C@]3(C)[C@]2(C(=O)CO)O1 (some centres undefined),141%
2,Nc1nc(=O)[nH]cc1F,233%
3,C=CC1=C(C(=O)O)N2C(=O)[C@@H](NC(=O)/C(=N\OCC(=O)O)c3csc(N)n3)[C@H]2SC1 [Suprax],195%
4,C[N+](C)(C)C[C@H](O)CC(=O)[O-] [levocarnitine],250%
5,C[N+](C)([O-])CCC=C1c2ccccc2CCc2ccccc21 [amitriptylinoxide],78.3%
6,CCc1[nH]c(=O)[nH]c1C(=O)c1ccncc1 [piroximone],226%
7,CC1=C(CC(=O)O)c2cc(F)ccc2/C1=C\c1ccc([S+](C)[O-])cc1 (centres undefined) [Sulindac],235%
8,C[C@H]1[C@H](NC(=O)/C(=N\OC(C)(C)C(=O)O)c2csc(N)n2)C(=O)N1S(=O)(=O)O,195%
9,CC(Cc1ccccc1)N(C)C(=O)Cn1nc(-c2ccccc2)ccc1=O (centres undefined) [isamfazone],160%
10,CC(=O)O[C@@]12CO[C@@H]1C[C@H](O)[C@@]1(C)C(=O)[C@H](O)C3=C(C)[C@@H](OC(=O)[C@H](O)[C@@H](NC(=O)OC(C)(C)C)c4ccccc4)C[C@@](O)([C@@H](OC(=O)c4ccccc4)[C@H]21)C3(C)C [docetaxel],34.1%
11,C[C@@H]1C[C@H]2[C@@H]3C[C@H](F)C4=CC(=O)C=C[C@]4(C)[C@@]3(Cl)[C@@H](O)C[C@]2(C)[C@H]1C(=O)CO [clocortolone],406%
12,CCN1C(=CC=Cc2ccc3ccccc3[n+]2CC)C=Cc2ccccc21 [quinaldine blue],56.2%
13,NNCCc1ccccc1,145%
14,CC(N)C12CC3CC(CC(C3)C1)C2 (centres undefined) [Rimantadine],146%
15,OCC(O)COc1ccc(Cl)cc1 (centres undefined) [chlorphenesin],52%
16,CNC(=O)CN(CCN(CCN(CC(=O)[O-])CC(=O)NC)CC(=O)[O-])CC(=O)[O-].[Gd+3] [Omniscan],267%
17,CC(=O)NC1C(O)CC(O)(C(=O)O)OC1C(O)C(O)CO (centres undefined),370%
18,CC(C)(C)NC(=O)[C@@H]1CN(Cc2cccnc2)CCN1C[C@@H](O)C[C@@H](Cc1ccccc1)C(=O)N[C@H]1c2ccccc2C[C@H]1O [indinavir],235%
19,COc1cc(C)c(/C=C/C(C)=C/C=C/C(C)=C/C(=O)O)c(C)c1C [acitretin],106% and 299%
